Assay results: patent US20060134638, “Error reduction in automated gene synthesis” (Blue Heron Biotechnology, Inc., published 2006)

Biological target: T1, MutS (TaqMutS) (Thermus aquaticus) (UniProt Q56215)
T1 sequence (looked up, limits assumed): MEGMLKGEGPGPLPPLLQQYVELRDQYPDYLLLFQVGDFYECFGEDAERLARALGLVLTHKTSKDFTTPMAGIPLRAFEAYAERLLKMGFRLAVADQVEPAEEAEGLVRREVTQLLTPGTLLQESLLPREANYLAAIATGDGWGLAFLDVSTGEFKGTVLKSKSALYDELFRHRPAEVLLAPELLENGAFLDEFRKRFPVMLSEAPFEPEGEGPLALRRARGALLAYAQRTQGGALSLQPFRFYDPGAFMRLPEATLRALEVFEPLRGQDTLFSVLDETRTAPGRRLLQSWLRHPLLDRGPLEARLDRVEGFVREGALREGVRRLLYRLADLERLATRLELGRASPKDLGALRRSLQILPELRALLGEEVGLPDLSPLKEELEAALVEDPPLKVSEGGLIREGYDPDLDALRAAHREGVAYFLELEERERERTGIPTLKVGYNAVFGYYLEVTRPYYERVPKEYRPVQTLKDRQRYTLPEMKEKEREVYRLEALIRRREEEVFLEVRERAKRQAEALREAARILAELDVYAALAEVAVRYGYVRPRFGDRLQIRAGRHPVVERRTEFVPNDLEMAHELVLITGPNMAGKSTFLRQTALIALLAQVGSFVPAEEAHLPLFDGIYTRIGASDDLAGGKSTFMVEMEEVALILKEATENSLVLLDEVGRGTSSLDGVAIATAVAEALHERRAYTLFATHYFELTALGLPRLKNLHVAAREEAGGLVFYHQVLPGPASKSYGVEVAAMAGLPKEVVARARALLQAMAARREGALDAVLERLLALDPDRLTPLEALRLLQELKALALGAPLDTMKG
Experiment: activity assay
Settings: 500 nM MutS, 40 nM DNA, 60 C, Micropure-EZ column retention; purified recombinant protein; protein details: Epicentre listed as commercial source; only the site is given

Sequence: GAAGGCGCCC / CTTCTCGCGGG
- activity on this sequence (% heteroduplex removed): > 98

Construct, isoform or probe ends are uncertain for at least one entry. Protein sequences can lack the tags named with them.
